Measurements published in article PMC5428976.

By UniProt entry, the sequences of proteins in these tests, tags left out. Where a name states a change or a piece, a line headed by the entry shows the natural chain unless it says otherwise.
UniProt Q8TEB1: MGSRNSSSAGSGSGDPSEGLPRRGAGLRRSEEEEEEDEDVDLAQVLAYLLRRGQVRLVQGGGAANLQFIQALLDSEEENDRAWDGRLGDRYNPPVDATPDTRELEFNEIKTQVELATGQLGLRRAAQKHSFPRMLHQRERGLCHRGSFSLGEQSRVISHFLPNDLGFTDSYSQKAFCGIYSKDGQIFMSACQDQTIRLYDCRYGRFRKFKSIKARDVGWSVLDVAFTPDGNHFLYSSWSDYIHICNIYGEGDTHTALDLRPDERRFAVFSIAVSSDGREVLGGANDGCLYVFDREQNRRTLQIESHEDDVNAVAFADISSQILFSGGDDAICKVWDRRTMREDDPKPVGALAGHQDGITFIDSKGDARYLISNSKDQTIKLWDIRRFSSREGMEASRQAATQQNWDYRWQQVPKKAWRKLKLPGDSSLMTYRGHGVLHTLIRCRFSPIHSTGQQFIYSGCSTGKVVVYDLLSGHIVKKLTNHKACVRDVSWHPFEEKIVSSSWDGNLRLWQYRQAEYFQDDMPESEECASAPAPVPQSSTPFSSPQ

What was measured:
Test in all cases: co-IP; HEK-293T cells transiently transfected, 24 h, no MG-132; lysed in 0.5% CHAPS buffer (10mM Tris/Cl pH 7.5, 150mM NaCl, 0.5mM EDTA); GFP:WDR23 (or GFP) precipitated with magnetic agarose GFP Trap beads, 1 hour at 4°C, three washes; Western blot; some cells treated with 250μM H2O2
[1] = target: GFP:WDR23 isoform 1 (human), Q8TEB1; details: remark: other sources report otherwise
[2] = target: GFP:WDR23 isoform 1 (H306Y) (human)
[3] = target: GFP:WDR23 isoform 2 (H306Y) (human) (UniProt Q8TEB1)
[4] = target: GFP:WDR23 isoform 2 (human) (UniProt Q8TEB1)

binding [1]: binds
B1: HA-NRF2, Q16236 1-605 (protein)
chain: MMDLELPPPGLPSQQDMDLIDILWRQDIDLGVSREVFDFSQRRKEYELEKQKKLEKERQEQLQKEQEKAFFAQLQLDEETGEFLPIQPAQHIQSETSGSANYSQVAHIPKSDALYFDDCMQLLAQTFPFVDDNEVSSATFQSLVPDIPGHIESPVFIATNQAQSPETSVAQVAPVDLDGMQQDIEQVWEELLSIPELQCLNIENDKLVETTMVPSPEAKLTEVDNYHFYSSIPSMEKEVGNCSPHFLNAFEDSFSSILSTEDPNQLTVNSLNSDATVNTDFGDEFYSAFIAEPSISNSMPSPATLSHSLSELLNGPIDVSDLSLCKAFNQNHPESTAEFNDSDSGISLNTSPSVASPEHSVESSSYGDTLLGLSDSEVEELDSAPGSVKQNGPKTPVHSSGDMVQPLSPSQGQSTHVHDAQCENTPEKELPVSPGHRKTPFTKDKHSSRLEAHLTRDELRAKALHIPFPVEKIINLPVVDFNEMMSKEQFNEAQLALIRDIRRRGKNKVAAQNCRKRKLENIVELEQDLDHLKDEKEKLLKEKGENDKSLHLLKKQLSTLYLEVFSMLRDEDGKPYSPSEYSLQQTRDGNVFLVPKSKKPDVKKN

B2: HA-NRF2 (protein, UniProt Q16236 1-605)
chain: B1 chain
binding [2]: binds
binding [3]: binds
binding [4]: binds

No constants are given. Whether binding was seen depends on the method and setting. In cells and extracts the contact can be indirect. Binding can be weak; no strength is given. Where a sequence is shown, tags or fusion partners need not be part of it. One block for each binder: values may come before it.
